# Structures can show the parent of a compound that is named as a salt. The list shows a part of the results. Part of the spread comes from offsets between plates or batches.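 HCT116-GFP is a human colorectal cancer cell line that carries a KRAS mutation, is microsatellite-unstable and always makes green fluorescent protein; the immune cells came from healthy donors. Live-cell imaging of the green signal stood in for cancer cell survival, and activated immune cells alone cut survival to about half.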
# Test system: HCT116-GFP
# Assay: HCT116-GFP viability (GFP intensity) relative to untreated HCT116-GFP monoculture control, co-culture with activated PBMCs; higher = less cancer cell killing
# Conditions: culture: co-culture with anti-CD3/IL2 activated PBMCs 1:1; 10 µM; 72 h
row,Compound,HCT116-GFP viability [%]
1,CC(CN(C)C)CN1c2ccccc2Sc2ccccc21 (configuration not stated) [Trimeprazine tartrate],77.6
2,CC1(C)[C@@H](OC(=O)CCC(=O)O)CC[C@]2(C)[C@H]3C(=O)C=C4[C@@H]5C[C@@](C)(C(=O)O)CC[C@]5(C)CC[C@@]4(C)[C@]3(C)CC[C@@H]12 [Carbenoxolone disodium salt],76.5
3,N=C(N)NCCN1CCCCCCC1 [Guanethidine sulfate],37.5
4,C#C[C@]1(O)CC[C@H]2[C@@H]3CCC4=CC(=O)CC[C@@H]4[C@H]3CC[C@@]21CC [Norgestrel-(-)-D],74.7
5,C=CCOC(Cn1ccnc1)c1ccc(Cl)cc1Cl (configuration not stated) [Enilconazole],34.1
6,CC(=O)OCC(=O)[C@@]1(OC(C)=O)[C@@H](C)C[C@H]2[C@@H]3C[C@H](F)C4=CC(=O)C=C[C@]4(C)[C@@]3(F)[C@@H](O)C[C@@]21C [Diflorasone Diacetate],88.4
7,CC(CN(C)C)C(C)(O)Cc1ccc(Cl)cc1 (configuration not stated) [Clobutinol hydrochloride],54.8
8,C[C@]1(Cn2ccnn2)[C@H](C(=O)O)N2C(=O)C[C@H]2S1(=O)=O [Tazobactam],57.3
9,CC[C@@H](CO)NCCN[C@@H](CC)CO [Ethambutol dihydrochloride],49.4
10,CCCOc1ccc(C(=O)OCCN(CC)CC)cc1N [Proparacaine hydrochloride],71.5
11,C=CCSCC1Nc2cc(Cl)c(S(N)(=O)=O)cc2S(=O)(=O)N1 (configuration not stated) [Althiazide],95.6
12,c1ccc(CN(CC2=NCCN2)c2ccccc2)cc1 [Antazoline hydrochloride],50.3
13,CN(C)CC/C=C1/c2ccccc2COc2ccc(CC(=O)O)cc21 [Olopatadine hydrochloride],28.8
14,CC(C(=O)O)c1ccc(C(=O)c2ccccc2)s1 (configuration not stated) [Tiaprofenic acid],32.3
15,CC(=O)N(CC(O)CN(C(C)=O)c1c(I)c(C(=O)NCC(O)CO)c(I)c(C(=O)NCC(O)CO)c1I)c1c(I)c(C(=O)NCC(O)CO)c(I)c(C(=O)NCC(O)CO)c1I (configuration not stated) [Iodixanol],63.5
16,O=C(c1ccccc1)c1ccc2n1CCC2C(=O)O (configuration not stated) [Ketorolac tromethamine],69.4
17,CCOC(=O)[C@@](C)(N)Cc1ccc(O)c(O)c1 [Methyldopate hydrochloride],19
18,COc1c(N2CCNC(C)C2)c(F)cc2c(=O)c(C(=O)O)cn(C3CC3)c12 (configuration not stated) [Gatifloxacin],35.6
19,CN1Cc2c(N)cccc2C(c2ccccc2)C1 (configuration not stated) [Nomifensine maleate],31.2
20,CC(C)(O)c1ccccc1CC[C@@H](SCC1(CC(=O)O)CC1)c1cccc(/C=C/c2ccc3ccc(Cl)cc3n2)c1 [Montelukast],9.62
21,"c1ccc(CNc2ncnc3nc[nH]c23)cc1 [Aminopurine, 6-benzyl]",58.4
22,NC1CCN(c2nc3c(cc2F)c(=O)c(C(=O)O)cn3-c2ccc(F)cc2F)C1 (configuration not stated) [Tosufloxacin hydrochloride],33.6
23,COC(=O)Nc1nc2cc([S+]([O-])c3ccccc3)ccc2[nH]1 (configuration not stated) [Oxfendazol],9.72
24,Cc1cc(N)c2ccccc2[n+]1CCCCCCCCCC[n+]1c(C)cc(N)c2ccccc21 [Dequalinium dichloride],6.35

row,Compound,HCT116-GFP viability [%]
1,Nc1ccn([C@@H]2CS[C@H](CO)O2)c(=O)n1 [Lamivudine],29.3
2,COc1ccccc1OCC(O)COC(N)=O (configuration not stated) [Methocarbamol],25.1
3,CO/N=C(\C(=O)N[C@@H]1C(=O)N2C(C(=O)OC(C)OC(C)=O)=C(COC(N)=O)CS[C@H]12)c1ccco1 (some centres not stated) [Cefuroxime axetil],32
4,CN1CCC(OC(c2ccccc2)c2ccccc2)CC1 [Diphenylpyraline hydrochloride],73.8
5,O=C(Oc1cccc2cccnc12)c1ccccc1 [Benzoxiquine],26.2
6,Clc1ccc(Nc2nnc(Cc3ccncc3)c3ccccc23)cc1 [Vatalanib],25.2
7,Fc1ccc([C@@H]2CCNC[C@H]2COc2ccc3c(c2)OCO3)cc1 [Paroxetine Hydrochloride],63.4
8,Nc1nc(O)c2ncn(CCC(CO)CO)c2n1 [Penciclovir],38
9,O=c1[nH]cnc2c1ncn2[C@H]1CC[C@@H](CO)O1 [Didanosine],37.5
10,CN(C/C=C/C#CC(C)(C)C)Cc1cccc2ccccc12 [Terbinafine],18.1
11,NCCC[C@H](N)CC(=O)N[C@H]1CNC(=O)[C@H]([C@H]2C[C@H](O)NC(N)=N2)NC(=O)/C(=C/NC(N)=O)NC(=O)[C@H](CO)NC(=O)[C@H](CO)NC1=O [Viomycin sulfate],12.8
12,CN(C)CCCN1c2ccccc2CCc2ccccc21 [Imipramine hydrochloride],74.4
13,NC(CO)C(=O)NNCc1ccc(O)c(O)c1O (configuration not stated) [Benserazide hydrochloride],71.3
14,O=C1c2cccc3c2[C@H](CCC3)CN1[C@@H]1CN2CCC1CC2 [Palonosetron hydrochloride],36.9
15,NCC[C@H](O)C(=O)N[C@@H]1C[C@H](N)[C@@H](O[C@H]2O[C@H](CN)[C@@H](O)[C@H](O)[C@H]2O)[C@H](O)[C@H]1O[C@H]1O[C@H](CO)[C@@H](O)[C@H](N)[C@H]1O [Amikacin hydrate],44.2
16,CC(C)CN(C[C@@H](O)[C@H](Cc1ccccc1)NC(=O)O[C@H]1CO[C@H]2OCC[C@H]21)S(=O)(=O)c1ccc(N)cc1 [Darunavir],54.1
17,OCCN1C[C@H](O)[C@@H](O)[C@H](O)[C@H]1CO [Miglitol],35.2
18,CC(C)C(=O)Nc1ccc([N+](=O)[O-])c(C(F)(F)F)c1 [Flutamide],42.7
19,Cn1cnc([N+](=O)[O-])c1Sc1ncnc2[nH]cnc12 [Azathioprine],28.1
20,"C[C@@]1(O)CCOC(=O)C1 [Mevalonic-D, L acid lactone]",74.7
21,COCC(=O)Nc1c(I)c(C(=O)NCC(O)CO)c(I)c(C(=O)N(C)CC(O)CO)c1I (configuration not stated) [Iopromide],75.4
22,O=C(O)CCCC[C@@H]1SC[C@@H]2NC(=O)N[C@@H]21 [Biotin],45
23,CC1COc2c(N3CCN(C)CC3)c(F)cc3c(=O)c(C(=O)O)cn1c23 (configuration not stated) [Ofloxacin],58.5
24,CC(=O)SCC(Cc1ccccc1)C(=O)NCC(=O)OCc1ccccc1 (configuration not stated) [Racecadotril],56.4

row,Compound,HCT116-GFP viability [%]
1,C[C@H](CCC(=O)O)[C@H]1CC[C@H]2[C@@H]3CC[C@@H]4C[C@H](O)CC[C@]4(C)[C@H]3CC[C@]12C [Lithocholic acid],65.5
2,COC(=O)C1=C(C)NC(C)=C(C(=O)OC(C)C)C1c1cccc2nonc12 (configuration not stated) [Isradipine],31.5
3,"CC(C)NCC(O)c1cc(O)cc(O)c1 (configuration not stated) [Metaproterenol sulfate, orciprenaline sulfate]",53.7
4,O=C(O)CN(CCN(CC(=O)O)CC(=O)O)CCN(CC(=O)O)CC(=O)O [Pentetic acid],71.7
5,C#CCN(C)CCCOc1ccc(Cl)cc1Cl [Clorgyline hydrochloride],57.2
6,Cn1c(=O)c2c(ncn2CCO)n(C)c1=O [Etofylline],25.9
7,COc1ccccc1N1CCN(CCCNc2cc(=O)n(C)c(=O)n2C)CC1 [Urapidil hydrochloride],68.2
8,COc1nc(N)nc2c1ncn2[C@@H]1O[C@H](CO)[C@@H](O)[C@@H]1O [Nelarabine],40.3
9,CCC(=O)OCC(=O)[C@@]1(OC(=O)CC)[C@@H](C)C[C@H]2[C@@H]3CCC4=CC(=O)C=C[C@]4(C)[C@@]3(Cl)[C@@H](O)C[C@@]21C [Beclomethasone dipropionate],80.6
10,CCN(CC)Cc1cc(Nc2ccnc3cc(Cl)ccc23)ccc1O [Amodiaquin dihydrochloride dihydrate],48.5
11,Clc1ccc(C(Cn2ccnc2)OCc2csc3c(Cl)cccc23)c(Cl)c1 (configuration not stated) [Sertaconazole nitrate],21
12,CC(=O)OCC1=C(C(=O)O)N2C(=O)[C@@H](NC(=O)Cc3cccs3)[C@H]2SC1 [Cephalothin sodium salt],75.6
13,CCN(CC)CCNC(=O)COc1ccc(OC)cc1 [Mefexamide hydrochloride],46
14,CC1(C)S[C@@H]2[C@H](NC(=O)Cc3ccccc3)C(=O)N2[C@H]1C(=O)O [Benzathine benzylpenicillin],41.2
15,CC1(C)S[C@@H]2[C@H](NC(=O)Cc3ccccc3)C(=O)N2[C@H]1C(=O)O [Benzylpenicillin sodium],40.5
16,CCCCc1nc(Cl)c(CO)n1Cc1ccc(-c2ccccc2-c2nnn[nH]2)cc1 [Losartan],37.7
17,O=C1NCCN1CCN1CCC(c2cn(-c3ccc(F)cc3)c3ccc(Cl)cc23)CC1 [Sertindole],4.96
18,O=C1CCC(N2C(=O)c3ccccc3C2=O)C(=O)N1 (configuration not stated) [Thalidomide],51.5
19,O=C1OC(CN2CCOCC2)CN1/N=C/c1ccc([N+](=O)[O-])o1 (configuration not stated) [Furaltadone hydrochloride],60.1
20,CNCCCN1c2ccccc2CCc2ccccc21 [Desipramine hydrochloride],64
21,CCC(C)n1ncn(-c2ccc(N3CCN(c4ccc(OCC5COC(Cn6cncn6)(c6ccc(Cl)cc6Cl)O5)cc4)CC3)cc2)c1=O (configuration not stated) [Itraconazole],33.5
22,Cc1cccc(Nc2ccccc2C(=O)O)c1C [Mefenamic acid],43.1
23,C[n+]1ccccc1/C=N/O [Pralidoxime chloride],72.1
24,O=C(O)CCNC(=O)c1ccc(/N=N/c2ccc(O)c(C(=O)O)c2)cc1 [Balsalazide Sodium],86.5
